Test results taken from article PMC11727564.
Residue numbers refer to the chain shown, from its start. These are yes or no findings as the source states them, for the method shown. Binding seen in cells or lysates may run through a third protein. Some binding calls cover weakened binding; strength is not graded here. Where a sequence is shown, tags or fusion partners need not be part of it.

Amino acid sequences for entries named in this document (tags omitted).
UniProt O95747: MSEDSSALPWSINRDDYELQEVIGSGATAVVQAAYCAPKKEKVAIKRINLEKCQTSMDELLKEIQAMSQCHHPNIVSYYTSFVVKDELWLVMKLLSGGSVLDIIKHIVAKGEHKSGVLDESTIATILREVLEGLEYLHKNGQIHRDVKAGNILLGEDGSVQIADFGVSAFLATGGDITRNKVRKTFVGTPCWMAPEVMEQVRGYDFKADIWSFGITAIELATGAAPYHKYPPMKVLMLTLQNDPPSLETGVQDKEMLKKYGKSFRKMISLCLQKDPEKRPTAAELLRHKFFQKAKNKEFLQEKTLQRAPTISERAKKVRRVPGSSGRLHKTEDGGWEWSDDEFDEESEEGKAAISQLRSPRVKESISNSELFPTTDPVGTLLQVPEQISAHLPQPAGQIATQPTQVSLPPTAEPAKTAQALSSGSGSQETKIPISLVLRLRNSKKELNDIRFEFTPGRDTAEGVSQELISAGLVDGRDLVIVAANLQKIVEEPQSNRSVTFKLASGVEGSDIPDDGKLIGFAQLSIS

Target: Flag-OXSR1 (Oxidative Stress Responsive Kinase 1) (UniProt O95747)
Experiment: co-IP; HEK-293 cells co-transfected with Flag-OXSR1 and HA-RELT constructs (5 µg each); lysates 24 h after transfection; FLAG immunoprecipitation kit; Western blot with anti-HA and anti-FLAG

B1: HA-RELT (Receptor Expressed in Lymphoid Tissues), wild type (receptor, UniProt Q969Z4 26-430)
chain: STTLWQCPPGEEPDLDPGQGTLCRPCPPGTFSAAWGSSPCQPHARCSLWRRLEAQVGMATRDTLCGDCWPGWFGPWGVPRVPCQPCSWAPLGTHGCDEWGRRARRGVEVAAGASSGGETRQPGNGTRAGGPEETAAQYAVIAIVPVFCLMGLLGILVCNLLKRKGYHCTAHKEVGPGPGGGGSGINPAYRTEDANEDTIGVLVRLITEKKENAAALEELLKEYHSKQLVQTSHRPVSKLPPAPPNVPHICPHRHHLHTVQGLASLSGPCCSRCSQKKWPEVLLSPEAVAATTPVPSLLPNPTRVPKAGAKAGRQGEITILSVGRFRVARIPEQRTSSMVSEVKTITEAGPSWGDLPDSPQPGLPPEQQALLGSGGSRTKWLKPPAENKAEENRYVVRLSESNLVI
binding: binds

B2: HA-RELT RARA mutant (RFRV → RARA at amino acids 349–352) (receptor, UniProt Q969Z4 26-430)
chain: B1 chain with F325A, V327A
binding: no binding
